Reference: patent publication US7572809B2, “Isoquinoline aminopyrazole derivatives” (Hoffmann-La Roche Inc., priority 2005, dated 2009)
Some entries share one result that the patent states for a list of compounds. Some ranges recur; such a range may be that of the whole group of compounds.

Legend:
[1] = system: HCT 116 cells; test: Viability assay in HCT 116 cells (CellTiter-Glo); format: cell-based; settings: HCT 116 human colon carcinoma cells, 5 days incubation
Procedure: Viability Assay in HCT 116 Cells
A viability assay was performed using the CellTiter-Glo® Luminescent Cell Viability Assay (see Promega Corporation's Technical Bulletin No. 288, pp. 1-11 [revised February, 2004] which is hereby incorporated by reference in its entirety). This assay is a homogeneous method of determining the number of viable cells in culture based on quantitation of the ATP present, an indicator of metabolically active cells. The assay is designed for use with multiwell formats, making it ideal for automated high-throughput screening (HTS), cell proliferation and cytotoxicity assays. The homogeneous assay procedure involves adding a single reagent (containing luciferase, luciferan substrate, and buffer) directly to cells cultured in serum-supplemented medium. Cell washing, removal of medium and multiple pipetting steps are not required. The system detects as few as 15 cells/well in a 384-well format in 10 minutes after adding reagent and mixing.
The homogeneous “add-mix-measure” format results in cell lysis and generation of a luminescent signal proportional to the amount of ATP present. The amount of ATP is directly proportional to the number of cells present in culture. The above-referenced assay generates a “glow-type” luminescent signal, produced by the luciferase reaction, which has a half-life generally greater than five hours, depending on cell type and medium used. The extended half-life eliminates the need to use reagent injectors and provides flexibility for continuous or batch mode processing of multiple plates. The unique homogeneous format avoids errors that may be introduced by other ATP measurement methods that require multiple steps.
HCT 116 cells (human colon carcinoma, ATCC-No. CCl-247) were cultivated in RPMI 1640 medium with GlutaMAX™ I (cell culture media that contains L-Alanyl-L-Glutamine [a stabilized form/source of L-Glutamine] from Invitrogen, Cat-No. 61870-010), 5% Fetal Calf Serum (FCS, Sigma Cat-No. F4135 (FBS)); 100 Units/ml penicillin/100 μg/ml streptomycin (=Pen/Strep from Invitrogen Cat. No. 15140). For the assay the cells were seeded in 384 well plates, 1000 cells per well, in the same medium. The next day the test compounds were added in various concentrations ranging from 30 μM to 0.0015 μM (10 concentrations, 1:3 diluted). After 5 days the viability assay was performed according to the instructions of the manufacturer. In brief: the cell-plate was equilibrated to room temperature for approximately 30 minutes and then the CellTiter-Glo™ reagent (which contains luciferase, luciferan substrate, and buffer) was added. The contents were carefully mixed for 15 minutes to induce cell lysis. After 45 minutes the luminescent signal was measured in Victor 2, (scanning multiwell spectrophotometer, Wallac).
1st. Day: • Medium: RPMI 1640 with GlutaMAX™ I (Invitrogen, Cat-No. 61870), 5% FCS (Sigma Cat.-No. F4135), Pen/Strep (Invitrogen, Cat No. 15140). • HCT116 (ATCC-No. CCl-247): 1000 cells in 60 μl per well of 384 well plate (Greiner 781098, μClear-plate white) • After seeding incubate plates 24 h at 37° C., 5% CO2 2nd. Day: Induction (Treatment with Compounds, 10 Concentrations):
In order to achieve a final concentration of 30 μM as highest concentration 3.5 μl of 10 mM compound stock solution were added directly to 163 μl media. Then step e) of the dilution procedure described below, was followed.
In order to achieve the second highest to the lowest concentrations, a serial dilution with dilution steps of 1:3 was followed according to the procedure (a-e) as described here below: a) for the second highest concentration add 10 μl of 10 mM stock solution of compound to 20 μl dimethylsulfoxide (DMSO) b) dilute 8×1:3 (always 10 μl to 20 μl DMSO) in this DMSO dilution row (results in 9 wells with concentrations from 3333.3 μM to 0.51 μM) c) dilute each concentration 1:47.6 (3.5 μl compound dilution to 163 μl media) […]

[2] = biological target: T1, Aurora A kinase (Homo sapiens, UniProt O14965); test: IC50 determination for inhibitors of Aurora A kinase (ELISA, GST-Histone H3 substrate); format: biochemical; settings: mutant Aurora A kinase, 30 μM ATP, 40 minutes
T1 sequence (O14965 1-403): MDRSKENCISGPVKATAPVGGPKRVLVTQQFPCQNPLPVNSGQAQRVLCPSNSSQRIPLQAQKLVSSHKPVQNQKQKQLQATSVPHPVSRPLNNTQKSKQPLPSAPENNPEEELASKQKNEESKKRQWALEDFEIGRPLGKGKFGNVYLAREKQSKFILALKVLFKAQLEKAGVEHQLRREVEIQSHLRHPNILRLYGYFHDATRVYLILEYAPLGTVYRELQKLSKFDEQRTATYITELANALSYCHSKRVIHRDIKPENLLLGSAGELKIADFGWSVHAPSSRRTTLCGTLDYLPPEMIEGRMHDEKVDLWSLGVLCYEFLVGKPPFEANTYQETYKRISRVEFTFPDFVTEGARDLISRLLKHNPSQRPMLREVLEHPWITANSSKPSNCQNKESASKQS

SMILES | IC50 [1] [nM] | IC50 Aurora A kinase inhibition [2] [nM]
COc1cccc2c(-c3ccsc3)nc(Nc3cc(C)[nH]n3)cc12 [Example 198, (5-Methyl-1H-pyrazol-3-yl)-(1-thiophen-3-yl-5-methoxy-isoquinolin-3-yl)-amine] | 10 to 15000 | 1 to 15000
COc1ccc2c(Nc3ccc(C#N)cc3)nc(Nc3cc(C)[nH]n3)cc2c1 [Example 273, 4-[6-Methoxy-3-(5-methyl-1H-pyrazol-3-ylamino)-isoquinolin-1-ylamino]-benzonitrile] | 10 to 15000 | 1 to 15000
Cc1cc(Nc2cc3ccccc3c(Nc3ccc(C#N)cc3)n2)n[nH]1 [Example 274, 4-[3-(5-Methyl-1H-pyrazol-3-ylamino)-isoquinolin-1-ylamino]-benzonitrile] | 10 to 15000 | 1 to 15000
COc1cc2cc(Nc3cc(C)[nH]n3)nc(Nc3ccc(C#N)cc3)c2cc1OC [Example 278, 4-[6,7-Dimethoxy-3-(5-methyl-1H-pyrazol-3-ylamino)-isoquinolin-1-ylamino]-benzonitrile] | 10 to 15000 | 1 to 15000
COc1ccc2c(C(C)C)nc(Nc3cc(C)[nH]n3)cc2c1 [Example 321, (1-Isopropyl-6-methoxy-isoquinolin-3-yl)-(5-methyl-1H-pyrazol-3-yl)-amine] | 10 to 15000 | 1 to 15000
